Results deposited as PubChem BioAssay AID1159584 (Peter MacCallum Cancer Centre, 2016)
The deposit covers about 18,000 reagents; below is a part drawn at random. Reagent sequences are not shown. Not given: the amount of reagent, the time to read-out.

Assay: 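Genes that CDH1-null MCF10A cells selectively depend on to survive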 (primary screen)
Cell system: human MCF10A breast epithelial cells, parental and CDH1-null
Reagent: siRNA against human genes
Read-out: 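Cell viability by CellTiter-Glo ATP luminescence, each line scaled to the mean of mock wells across plates, then CDH1-null over parental ratio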
Reading the numbers: CDH1-null / parental viability ratio: higher = CDH1-null cells survive relatively better than parental; CDH1-null viability vs mock: higher = more viable CDH1-null cells; parental viability vs mock: higher = more viable parental cells

The opening 6 records as a preview:
gene symbol	CDH1-null / parental viability ratio	CDH1-null viability vs mock (fraction of mock)	parental viability vs mock (fraction of mock)
IFIT1B (GeneID 439996)	1.01	0.75	0.74
AIDA (GeneID 64853)	1	1.17	1.17
ELOVL1 (GeneID 64834)	0.69	0.37	0.54
PTH1R (GeneID 5745)	0.9	0.86	0.96
ACADM (GeneID 34)	1.01	0.96	0.95
RPS6KL1 (GeneID 83694)	0.82	0.54	0.66

The listing, from the first entry:
gene symbol	CDH1-null / parental viability ratio	CDH1-null viability vs mock (fraction of mock)	parental viability vs mock (fraction of mock)
IFIT1B (GeneID 439996)	1.01	0.75	0.74
AIDA (GeneID 64853)	1	1.17	1.17
ELOVL1 (GeneID 64834)	0.69	0.37	0.54
PTH1R (GeneID 5745)	0.9	0.86	0.96
ACADM (GeneID 34)	1.01	0.96	0.95
RPS6KL1 (GeneID 83694)	0.82	0.54	0.66
MTNR1B (GeneID 4544)	0.75	0.43	0.57
SGPP1 (GeneID 81537)	1.3	0.9	0.69
PTPN7 (GeneID 5778)	1.56	0.92	0.59
LANCL3 (GeneID 347404)	1.11	1.02	0.92
ECHDC1 (GeneID 55862)	1.03	0.89	0.86
POLR3A (GeneID 11128)	1.07	0.9	0.84
OR1A2 (GeneID 26189)	0.92	0.7	0.76
ADAMTS3 (GeneID 9508)	1.2	0.84	0.7
GRIK3 (GeneID 2899)	1.24	1.04	0.84
EMC3 (GeneID 55831)	1.15	0.63	0.55
C10orf62 (GeneID 414157)	1.53	0.52	0.34
PCDHB4 (GeneID 56131)	0.91	0.84	0.92
YRDC (GeneID 79693)	0.95	0.52	0.55
OR4F6 (GeneID 390648)	0.81	0.64	0.79
THAP10 (GeneID 56906)	1.66	0.96	0.58
AIMP2 (GeneID 7965)	0.97	0.7	0.72
ANKRD13C (GeneID 81573)	1.09	0.74	0.68
FMN2 (GeneID 56776)	1.06	0.91	0.86
EIF5A (GeneID 1984)	1.16	1.09	0.94
ME2 (GeneID 4200)	0.94	0.96	1.02
KLK14 (GeneID 43847)	1.38	1.1	0.8
DDX60 (GeneID 55601)	1.26	1.12	0.89
PCDHGA11 (GeneID 56105)	0.74	0.61	0.82
SORL1 (GeneID 6653)	0.78	0.56	0.72
SLC26A7 (GeneID 115111)	1.06	0.88	0.83
DDHD2 (GeneID 23259)	1.35	0.96	0.71
ADAT2 (GeneID 134637)	0.93	0.82	0.88
VMAC (GeneID 400673)	1	0.55	0.55
EPHB6 (GeneID 2051)	1.19	0.74	0.62
C3orf18 (GeneID 51161)	0.94	0.58	0.62
PRXL2A (GeneID 84293)	0.98	1	1.02
DMBT1 (GeneID 1755)	1.34	1.02	0.76
CWH43 (GeneID 80157)	1.32	0.95	0.72
RNF20 (GeneID 56254)	0.86	0.67	0.78
CCDC167 (GeneID 154467)	1.06	0.57	0.54
CSTA (GeneID 1475)	1.01	0.75	0.74
EIF1AD (GeneID 84285)	1.07	1.1	1.03
CCN2 (GeneID 1490)	0.96	0.81	0.84
IGF2BP2-AS1 (GeneID 646600)	1	0.64	0.64
TKT (GeneID 7086)	0.8	0.7	0.88
TRIM32 (GeneID 22954)	0.81	0.76	0.94
NSUN5P1 (GeneID 155400)	1.12	0.74	0.66
TMEM161B (GeneID 153396)	0.86	0.86	1
POU2F2 (GeneID 5452)	0.96	0.78	0.81
ZZEF1 (GeneID 23140)	0.88	0.6	0.68
PRSS35 (GeneID 167681)	1.08	0.94	0.87
TMEM71 (GeneID 137835)	0.84	0.86	1.02
TP53BP1 (GeneID 7158)	1.05	0.86	0.82
MEP1A (GeneID 4224)	1.21	0.87	0.72
ZNF646 (GeneID 9726)	0.87	0.61	0.7
SLA (GeneID 6503)	0.66	0.74	1.12
SNRPB (GeneID 6628)	1.91	0.42	0.22
HOXC11 (GeneID 3227)	0.93	1.02	1.1
CCL17 (GeneID 6361)	1.21	0.34	0.28
TVP23B (GeneID 51030)	0.87	0.81	0.93
SMG5 (GeneID 23381)	0.91	0.96	1.05
SNX15 (GeneID 29907)	1.06	0.87	0.82
UNC13C (GeneID 440279)	0.97	0.56	0.58
KLF4 (GeneID 9314)	1.3	1.09	0.84
ZNF519 (GeneID 162655)	1.05	1.16	1.11
RPL4 (GeneID 6124)	1.33	0.48	0.36
MFGE8 (GeneID 4240)	1.18	0.86	0.73
GSG1L (GeneID 146395)	1.2	0.66	0.55
ACOT2 (GeneID 10965)	0.84	0.67	0.8
ACOT13 (GeneID 55856)	1.05	0.8	0.76
RAD54L (GeneID 8438)	0.99	0.85	0.86
FMO1 (GeneID 2326)	1.02	0.85	0.83
NBPF8 (GeneID 728841)	1.09	0.98	0.9
OR4B1 (GeneID 119765)	1.1	0.87	0.79
RAD23B (GeneID 5887)	0.78	0.76	0.98
WFDC2 (GeneID 10406)	0.88	0.68	0.77
ANKRD17 (GeneID 26057)	1.16	0.88	0.76
OR8U3 (GeneID 219479)	0.97	0.76	0.78
GRIA3 (GeneID 2892)	1.22	0.98	0.8
TMEM167A (GeneID 153339)	0.78	0.46	0.59
PEDS1-UBE2V1 (GeneID 387522)	1.11	0.83	0.75
ENOX2 (GeneID 10495)	0.92	0.66	0.72
YJU2 (GeneID 55702)	0.79	0.62	0.78
RNASE4 (GeneID 6038)	1.07	0.92	0.86
MED22 (GeneID 6837)	1.14	0.5	0.44
DOLPP1 (GeneID 57171)	1.1	1.02	0.93
